Assay: Cysteine effective concentration (Ceff) measurement, thiol-disulfide equilibrium relative to glutathione
Assay type: physicochemical
Conditions: Hammett plot slope
Protocol: Cysteine Effective Concentration Measurements. Glutathione stock solutions were prepared by mixing 3 volumes of 0.2 M reduced glutathione (GSH) with 1 volume of 0.1 M oxidized glutatione (GSSG). Aliquots were stored at −80° C. and were stable for several months; use of a single batch eliminated any error in ΔΔG values that might arise from variability of total glutathione concentration. Thiol-disulfide equilibria were established by mixing 50 μL peptide stock (approximately 3 mM in water) with 50 μL glutathione stock, deoxygenating the acidic solution with vacuum/argon cycles from a Firestone valve, then adding 300 μL of deoxygenated buffer by syringe (0.2 M tris, pH 8.0; 1 mM EDTA; 67 mM tris base to titrate glutathione), followed by further deoxygenation of the mixture. The final pH of all reaction mixtures was 8.10±0.05. Solutions were stirred under argon and maintained at 20° C. in a water bath. After 1.5 h, successive aliquots (100 μL) were removed with a gastight syringe, immediately quenched by discharge into 400 μL of 3.1 mM HCl, and analyzed by HPLC with a minimum of delay. Ceff values were calculated from the molar ratios of the reduced and oxidized forms of peptide and glutathione (peak area ratios corrected for absorbance differences measured by HPLC), assuming 0.025 M total glutathione monomer (i.e., neglecting the minor amount (<1%) of glutathione present in mixed disulfides with peptide): Ceff=([peptideox]/[peptidered])×([GSH]^2/[GSSG]) [GSH]+2[GSSG]=0.025 M [GSSG]=0.025 M/{2+3.26 (GSH peak area/GSSG peak area)} [peptideox]/[peptidered]=equilibrium peak area ratio/absorbance ratio
Two or three samples from each reaction mixture were analyzed; there were no shifts in populations with time, and calculated Ceff values typically varied by less than 5% (equivalent to 30 cal/mol uncertainty in ΔΔG).

[1] = value in parentheses, tryptophan peptide as internal reference

Row | Substance | ρ, X3 vs. X8 (alanine peptide as reference) | ρ, X3 vs. X8 [1] | ρ, leu vs. trp (alanine peptide as reference) | ρ, leu vs. trp [1]
1 | Ac-C T L E G N K X T C-NH2 [L3X8] | 0.98 | 0.86 | – | –
2 | Ac-C T W E G N K X T C-NH2 [W3X8] | 1.15 | 1.11 | 0.47 | 0.43
3 | Ac-C T X E G N K W T C-NH2 [X3W8] | – | – | 0.43 | 0.32

— US7235626B1, “Structured peptide scaffold for displaying turn libraries on phage” (Genentech, Inc., priority 1999, dated 2007)
